Data: publication PMC4604347, “Local regulation of the Srs2 helicase by the SUMO-like domain protein Esc2 promotes recombination at sites of stalled replication”
For some of these results: The comparison behind a weaker result is the experiment's own reference, which may not be listed here. Protein sequences can lack the tags named with them. Construct, isoform or probe ends are uncertain for at least one entry. At least one verdict rests on a figure or table, not on a statement of the authors.

Assays:
Test in all cases: EMSA
[1] = biological target: T1, Esc2 1-374 (Saccharomyces cerevisiae) (UniProt Q06340); conditions: highly proficient, 7 nM DNA, 0-1000 nM protein, 7 nM fluorescein-labeled DNA, 10 min at 37 C, recombinant protein, residues 1-374, label: 5'-fluorescein on strand 1, folded or branched DNA
T1 sequence (looked up): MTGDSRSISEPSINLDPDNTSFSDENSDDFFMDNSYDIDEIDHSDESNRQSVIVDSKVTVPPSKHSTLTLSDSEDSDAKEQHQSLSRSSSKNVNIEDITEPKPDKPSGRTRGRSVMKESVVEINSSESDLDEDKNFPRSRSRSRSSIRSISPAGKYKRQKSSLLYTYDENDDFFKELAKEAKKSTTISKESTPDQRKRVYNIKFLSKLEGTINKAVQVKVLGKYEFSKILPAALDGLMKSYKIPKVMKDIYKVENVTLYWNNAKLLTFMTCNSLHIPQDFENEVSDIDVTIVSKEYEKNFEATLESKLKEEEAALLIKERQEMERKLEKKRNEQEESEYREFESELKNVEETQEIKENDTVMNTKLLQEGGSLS

[2] = biological target: T2, Esc2 1-294 (Saccharomyces cerevisiae) (UniProt Q06340); conditions: highly proficient, 7 nM DNA, 0-1000 nM protein, 7 nM fluorescein-labeled DNA, 10 min at 37 C, recombinant protein, residues 1-294, label: 5'-fluorescein on strand 1, folded or branched DNA
T2 sequence (looked up): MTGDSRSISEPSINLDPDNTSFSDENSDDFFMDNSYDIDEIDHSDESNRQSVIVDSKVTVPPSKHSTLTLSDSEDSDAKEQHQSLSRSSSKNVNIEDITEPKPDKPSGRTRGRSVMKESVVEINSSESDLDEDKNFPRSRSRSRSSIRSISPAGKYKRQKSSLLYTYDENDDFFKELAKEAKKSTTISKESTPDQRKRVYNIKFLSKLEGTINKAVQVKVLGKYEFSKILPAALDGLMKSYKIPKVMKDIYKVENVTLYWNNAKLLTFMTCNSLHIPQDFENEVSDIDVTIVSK

[3] = biological target: T3, Esc2 (Saccharomyces cerevisiae) (UniProt Q06340); conditions: 7 nM DNA, 7 nM fluorescein-labeled DNA, 10 min at 37 C, recombinant protein, residues 1-456, protein details: GST tag removed
T3 sequence (looked up): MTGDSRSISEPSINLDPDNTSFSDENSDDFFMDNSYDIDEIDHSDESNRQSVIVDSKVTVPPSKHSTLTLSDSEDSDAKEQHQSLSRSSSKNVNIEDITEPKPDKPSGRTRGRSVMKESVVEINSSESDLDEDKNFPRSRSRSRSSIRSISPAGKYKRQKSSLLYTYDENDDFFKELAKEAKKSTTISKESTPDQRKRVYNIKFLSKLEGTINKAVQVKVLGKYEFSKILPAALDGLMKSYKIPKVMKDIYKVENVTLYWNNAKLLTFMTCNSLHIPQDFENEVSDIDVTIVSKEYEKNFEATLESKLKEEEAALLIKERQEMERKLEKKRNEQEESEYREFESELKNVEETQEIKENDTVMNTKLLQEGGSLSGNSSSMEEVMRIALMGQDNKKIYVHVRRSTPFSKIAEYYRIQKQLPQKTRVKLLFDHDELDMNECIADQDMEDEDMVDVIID

Sequence: AGCTACCATGCCTGCACGAATTAAGCAATTCGTAATCATGGTCATAGCT / CTACAGTTCGTCAGGATTCC / AATTCGTGCAGGCATGGTAGCT / AGCTATGACCATGATTACGAATTGCTTGGAATCCTGACGAACTGTAG [Fork (oligos 18, 20, 21, 22)]
- binding result [1]: binds
- binding result [2]: binds

Sequence: AGCTACCATGCCTGCACGAATTAAGCAATTCGTAATCATGGTCATAGCT [ssDNA (oligo 18)]
- binding result ([3]; little affinity, label: 5'-fluorescein, single-stranded DNA): binds more weakly

Sequence: AGCTACCATGCCTGCACGAATTAAGCAATTCGTAATCATGGTCATAGCT (double strand) [dsDNA (oligos 18, 19)]
- binding result ([3]; bound, less preferred than flap and fork, label: 5'-fluorescein on strand 1): binds more weakly
